The subject of this data set is peripheral blood mononuclear cells (PBMCs). Nature of the data set: MTT cell viability assay, PBMCs. The note with it: SI = IC50 for PBMCs/IC50 for K562 cells. (Formazan colour is commonly taken as a measure of viable cells.)

With `COc1cc2c(cc1Cl)Cc1c-2nn(-c2ccc(C)cc2)c1-c1ccc(N2CCCCC2)cc1` [Compound 7, 6-Chloro-7-methoxy-2-(4-methylphenyl)-3-[4-(piperidin-1-yl)phenyl]-2,4-dihydroindeno[1,2-c]pyrazole], the SI was > 36.23. Compound `COc1cc2c(cc1Cl)Cc1c-2nn(-c2ccc(Br)cc2)c1-c1ccc(N2CCCCC2)cc1` [Compound 4, 6-Chloro-7-methoxy-2-(4-bromophenyl)-3-[4-(piperidin-1-yl)phenyl]-2,4-dihydroindeno[1,2-c]pyrazole] returned an SI of 7.38.

The values above are taken from article PMC8778314, “A New Series of Indeno[1,2-c]pyrazoles as EGFR TK Inhibitors for NSCLC Therapy” (Molecules, 2022).
